Measured values from patent publication US20240398945A1.
These are yes or no findings as the source states them, for the method shown. Some binding calls cover weakened binding; strength is not graded here.

Protein sequences, listed by entry. Tags and fused reporters are not part of them. Residues count along the entry.
UniProt P15391, residues 20-556: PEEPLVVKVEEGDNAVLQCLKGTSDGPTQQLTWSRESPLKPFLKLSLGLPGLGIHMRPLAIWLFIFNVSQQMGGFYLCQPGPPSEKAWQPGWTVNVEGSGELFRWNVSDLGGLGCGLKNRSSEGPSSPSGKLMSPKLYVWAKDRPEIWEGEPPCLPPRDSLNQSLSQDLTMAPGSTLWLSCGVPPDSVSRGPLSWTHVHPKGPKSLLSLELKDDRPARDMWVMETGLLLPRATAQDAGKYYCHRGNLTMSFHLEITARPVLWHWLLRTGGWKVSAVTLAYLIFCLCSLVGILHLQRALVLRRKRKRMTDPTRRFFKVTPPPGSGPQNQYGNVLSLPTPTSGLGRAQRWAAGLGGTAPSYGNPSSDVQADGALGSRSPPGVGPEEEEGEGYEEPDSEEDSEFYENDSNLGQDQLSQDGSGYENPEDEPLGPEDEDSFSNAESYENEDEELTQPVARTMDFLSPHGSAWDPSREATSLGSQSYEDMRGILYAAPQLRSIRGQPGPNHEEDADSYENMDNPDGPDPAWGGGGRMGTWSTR

Experiments:
[1] = target: human CD19 protein (human) (UniProt P15391); assay: reactivity with B-cell lines
[2] = target: human CD19 protein (human) (UniProt P15391); assay: immunoprecipitation from Daudi cells
[3] = target: human CD19 protein (human) (UniProt P15391); assay: reactivity with hCD19-transfected 300.19 cells

binding [1]: binds | binding [2]: binds | binding [3]: binds
B1: murine anti-CD19 monoclonal antibody of the invention (antibody, V domains shown)
VH: QIQLQQSGAELVRPGSSVKISCKASGFAFSSYWMNWVKQRPGQGLEWIGQIYPGDGDTKYNVKFRGKATLTADESSSTAYIQLTSLTSEDSGVYFCARKRITAVITTVFDVWGAGTTVTVSS
VL: NIVLTQSPASLAVSLGQRATISCRASESVDNFGNSFMHWYQQKSGQPPRLLIYIASNLESGVPARFSGSGSRTDFTLTIDPVEADDAATYYCHQNNEDPLTFGAGTKLELK
